# From US20150087605A1 (priority 2013, published 2015)
# By UniProt entry, the sequences of proteins in these tests, tags left out. Residues count along the entry.
# UniProt P15917, 34-809 limits assumed: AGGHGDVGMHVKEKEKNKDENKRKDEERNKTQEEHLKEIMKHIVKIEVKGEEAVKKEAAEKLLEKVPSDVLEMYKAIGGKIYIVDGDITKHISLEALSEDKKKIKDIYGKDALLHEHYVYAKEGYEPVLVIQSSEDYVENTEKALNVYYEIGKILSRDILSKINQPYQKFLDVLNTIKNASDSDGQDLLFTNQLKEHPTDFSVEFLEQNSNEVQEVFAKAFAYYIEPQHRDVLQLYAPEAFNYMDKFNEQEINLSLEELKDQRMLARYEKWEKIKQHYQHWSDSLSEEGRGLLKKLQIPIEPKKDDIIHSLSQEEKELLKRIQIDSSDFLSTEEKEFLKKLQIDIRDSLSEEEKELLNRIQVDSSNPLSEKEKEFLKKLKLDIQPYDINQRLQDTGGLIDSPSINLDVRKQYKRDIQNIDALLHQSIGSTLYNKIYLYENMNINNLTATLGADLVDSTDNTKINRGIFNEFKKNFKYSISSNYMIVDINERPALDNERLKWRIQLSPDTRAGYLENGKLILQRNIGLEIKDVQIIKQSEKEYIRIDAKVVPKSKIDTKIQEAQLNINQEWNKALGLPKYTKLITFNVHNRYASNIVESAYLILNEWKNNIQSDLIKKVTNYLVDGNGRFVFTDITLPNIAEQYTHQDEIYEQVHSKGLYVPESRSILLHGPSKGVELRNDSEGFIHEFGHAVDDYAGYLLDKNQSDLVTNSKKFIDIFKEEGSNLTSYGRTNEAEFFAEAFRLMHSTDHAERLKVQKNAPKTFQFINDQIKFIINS
# Biological target: Anthrax Lethal Factor (LF) (Bacillus anthracis, UniProt P15917)
# Experiment: biochemical
# Format: binding
smiles,measurement,value
"COc1ccc2cc([C@H](C)C(=O)O)ccc2c1 [Naproxen, (S)-(+)-6-Methoxy-α-methyl-2-naphthaleneacetic acid]",Kd,10.8 µM
